Assay results from publication PMC6297355.
These are yes or no findings as the source states them, for the method shown. In cells and extracts the contact can be indirect. Some results given as binding are weak or reduced against the parent protein; the word gives no strength. Sequences can lack the tags named with a protein.

The chains behind the UniProt entries cited, without tags or fusion partners. Where a name states a change or a piece, a line headed by the entry shows the natural chain unless it says otherwise.
UniProt O95817: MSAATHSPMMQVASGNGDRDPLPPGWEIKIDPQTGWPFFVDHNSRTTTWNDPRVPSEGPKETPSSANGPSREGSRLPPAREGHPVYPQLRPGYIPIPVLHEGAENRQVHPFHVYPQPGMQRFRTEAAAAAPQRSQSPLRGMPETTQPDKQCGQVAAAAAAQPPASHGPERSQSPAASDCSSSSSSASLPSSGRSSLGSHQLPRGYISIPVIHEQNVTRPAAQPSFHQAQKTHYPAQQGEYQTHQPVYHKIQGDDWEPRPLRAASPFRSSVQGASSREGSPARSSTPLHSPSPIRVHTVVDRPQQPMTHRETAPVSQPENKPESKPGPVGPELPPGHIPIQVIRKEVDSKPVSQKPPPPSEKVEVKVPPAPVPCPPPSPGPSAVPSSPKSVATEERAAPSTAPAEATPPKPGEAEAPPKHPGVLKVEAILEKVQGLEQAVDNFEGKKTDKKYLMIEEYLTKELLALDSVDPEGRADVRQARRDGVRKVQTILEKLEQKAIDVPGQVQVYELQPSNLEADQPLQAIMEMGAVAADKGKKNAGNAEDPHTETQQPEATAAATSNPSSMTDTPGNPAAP

Experiments:
[1] = molecular target: FLAG-BAG3^P209L (human) (UniProt O95817); assay: co-IP; anti-FLAG (M2) magnetic beads on the soluble fraction of HEK293 lysates expressing FLAG-BAG3 variants and Myc-HSPB8, 0.4% NP-40 buffer, 4 °C; in Fig. 5f cells treated with 0.5 μM JG-98, 5 μM YM-01 or DMSO
[2] = molecular target: FLAG-BAG3^WT (human) (UniProt O95817); assay: as above

- binding [1]: binds
- binding [2]: binds
B1: Myc-HSPB8 (protein, UniProt Q9UJY1 1-196)
chain: MADGQMPFSCHYPSRLRRDPFRDSPLSSRLLDDGFGMDPFPDDLTASWPDWALPRLSSAWPGTLRSGMVPRGPTATARFGVPAEGRTPPPFPGEPWKVCVNVHSFKPEELMVKTKDGYVEVSGKHEEKQQEGGIVSKNFTKKIQLPAEVDPVTVFASLSPEGLLIIEAPQVPPYSTFGESSFNNELPQDSQEVTCT
